Measurements from the supplement of paper PMC12067093, “Discovery and optimisation of a covalent ligand for TRIM25 and its application to targeted protein ubiquitination” (Chemical Science, 2025).
The other results are listed elsewhere or left out.

The targets below were run with Cc1cc(ccc1-c1ccccc1)C(=O)N1CCCN(CC1)C(=O)CCl [compound 10] (assay: probe-labelled cysteine peptide fold change vs DMSO (competition) (log2 fold change); higher = less target engagement (more negative = stronger competition)). Details: 10 µM; THP-1; incubation time: 4 h.
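Also: competitive profiling in live THP-1 cells: cysteine peptides tagged with an iodoacetamide desthiobiotin (IA-DTB) probe, intensity after compound treatment relative to DMSO-treated cells.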

Row | Target | probe-labelled cysteine peptide fold change
1 | HPS1_Q92902_165_LREQEQCFAVEALER (UniProt Q92902) | -0.00352
2 | HUWE1_Q7Z6Z7_1252_AAFTCIK (UniProt Q7Z6Z7) | -0.276
3 | HUWE1_Q7Z6Z7_1278_MAESMLAILCHILR (UniProt Q7Z6Z7) | 0.0889
4 | HTATSF1_O43719_462_EAEEGCPEK (UniProt O43719) | -0.166
5 | HNRNPLL_Q8WVV9_84_GLCESVVEADLVEALEK (UniProt Q8WVV9) | -0.215
6 | HTATIP2_Q9BUP3_90_NVNQEVVDFEKLDDYASAFQGHDVGFCCLGTTR (UniProt Q9BUP3) | 0.0119
7 | HNRNPK_P61978_184+185_LFQECCPHSTDRVVLIGGKPDR (UniProt P61978) | -0.234
8 | HSF1_Q00613_378_CLSVACLDK (UniProt Q00613) | -0.219
9 | HNRNPDL_O14979_277_RGFCFITYTDEEPVK (UniProt O14979) | 0.288
10 | HSPA4_P34932_213_NVVFVDMGHSAYQVSVCAFNR (UniProt P34932) | 0.152
11 | HSD17B4_P51659_455_ELICHNQFSLFLVGSGGFGGK (UniProt P51659) | -0.00227
12 | HRAS_P01112_80_TGEGFLCVFAINNTK (UniProt P01112) | 0.0966
13 | HNRNPU_Q00839_389+391_TCNCETEDYGEK (UniProt Q00839) | -0.00884
14 | HSF1_Q00613_373+378_CLSVACLDK (UniProt Q00613) | -0.649
15 | HSF1_Q00613_373_CLSVACLDK (UniProt Q00613) | -0.339
16 | HSDL1_Q3SXM5_42_SITVICDFYSLIR (UniProt Q3SXM5) | -0.284
17 | HNRNPM_P52272_114_GCAVVEFK (UniProt P52272) | 0.0727
18 | HNRNPA1_P09651_43_SHFEQWGTLTDCVVMR (UniProt P09651) | 0.0768

Row | Target | probe-labelled cysteine peptide fold change
19 | HSP90AA1_P07900_420_CLELFTELAEDK (UniProt P07900) | -0.0655
20 | HSD17B10_Q99714_91_FGRVDVAVNCAGIAVASK (UniProt Q99714) | -0.04
21 | HSP90AA1_P07900_529_KHGLEVIYMIEPIDEYCVQQLK (UniProt P07900) | -0.104
22 | HTT_P42858_202_CRPYLVNLLPCLTR (UniProt P42858) | -0.139
23 | HSD17B10_Q99714_58_LGNNCVFAPADVTSEK (UniProt Q99714) | 0.0652
24 | HNRNPU_Q00839_389_TCNCETEDYGEK (UniProt Q00839) | 0.16
25 | HSDL2_Q6YN16_166_QHCAYTIAK (UniProt Q6YN16) | -0.107
26 | HSDL2_Q6YN16_218_TAIHTAAMDMLGGPGIESQCR (UniProt Q6YN16) | -0.174
27 | HNRNPLL_Q8WVV9_357_VFNLFCLYGNIEK (UniProt Q8WVV9) | 0.0942
28 | HNRNPA0_Q13151_49_CFGFVTYSNVEEADAAMAASPHAVDGNTVELKR (UniProt Q13151) | 0.122
29 | HSD17B7_P56937_158_ELEPLLCHSDNPSQLIWTSSR (UniProt P56937) | 0.191
30 | HP1BP3_Q5SSJ5_359_TCSTTALK (UniProt Q5SSJ5) | -0.118
31 | HSPA14_Q0VDF9_492_DGSLHVTCTDQETGK (UniProt Q0VDF9) | -0.0228
32 | HTT_P42858_636_NMSHCR (UniProt P42858) | -0.461
33 | HNRNPUL1_Q9BUJ2_391_AEPYCSVLPGFTFIQHLPLSER (UniProt Q9BUJ2) | -0.1
34 | HSPA4_P34932_140+146_KPVVDCVVSVPCFYTDAER (UniProt P34932) | 0.18
35 | HSPA5_P11021_41_EDVGTVVGIDLGTTYSCVGVFK (UniProt P11021) | 0.237
36 | HSPA4_P34932_779_ELTSTCSPIISKPKPK (UniProt P34932) | -0.268
